Consider 5 molecules from the supplement of paper PMC4604168 (melanoma cell lines).

This is one part of the list. Many values rest on one well or one pass, so single values are uncertain.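 Imaging used 1,536-well plates; nuclei positive for cleaved PARP by antibody were divided by total DNA-stained nuclei to yield the apoptosis fraction. Doses for screening kept most cells viable, and cell lines differ markedly in resting and induced cleaved-PARP levels.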

The subject of this assay is SkMel30. In words: cleaved PARP positive nuclei fraction relative to DMSO control; melanoma cells; higher = more apoptosis. The following applies: library dose: low library concentration; 72 h.
Turning to `C[C@]1(O)C[C@@H](c2nc(-c3ccc4ccc(-c5ccccc5)nc4c3)c3c(N)nccn32)C1` + C/C(O)=C(\C#N)C(=O)Nc1cc(Br)ccc1Br [LFM-A13] (first compound 0.4 µM, partner dose 2 µM), the “cleaved PARP positive nuclei fraction” value was found to be 103%.

With `N.N.[Cl][Pt][Cl]` [cisplatin] + Cc1cc([N+](=O)[O-])ccc1NS(=O)(=O)c1cc(Cl)ccc1Cl [FH535] (first compound 1.6 µM, partner dose 1 µM), the “cleaved PARP positive nuclei fraction” value was 32.5%.

Consider `Cn1cc(C2=C(c3cn(C4CCN(Cc5ccccn5)CC4)c4ccccc34)C(=O)NC2=O)c2ccccc21` [Enzastaurin] + O=C1NC(=O)/C(=C/c2ccc(-c3ccc(F)cc3O)o2)S1 [AS252424] (first compound 0.8 µM, partner dose 1 µM), for which the “cleaved PARP positive nuclei fraction” value worked out at 27.4%.

`C=CCNC1=C2C[C@@H](C)C[C@H](OC)[C@H](O)[C@@H](C)/C=C(\C)[C@H](OC(N)=O)[C@@H](OC)/C=C\C=C(/C)C(=O)NC(=CC1=O)C2=O` [Tanespimycin] + Cc1cc(SCc2sc(-c3ccc(C(F)(F)F)c(F)c3)nc2C)ccc1OCC(=O)O [GW0742] (first compound 0.002 µM, partner dose 2 µM): the “cleaved PARP positive nuclei fraction” value was 28.3%.

For `O=C(O)c1ccc2c(c1)nc(Nc1cccc(Cl)c1)c1ccncc12` + O=C(Oc1ccc([N+](=O)[O-])cc1)N1CCC(C(O)(c2ccc3c(c2)OCO3)c2ccc3c(c2)OCO3)CC1 [JZL184] (first compound 0.4 µM, partner dose 1 µM), the “cleaved PARP positive nuclei fraction” value is 81.9%.
